Record: PubChem BioAssay AID1159584 (Peter MacCallum Cancer Centre, 2016)
Here is a random part of about 18,000 deposited reagents. Reagents against one gene are numbered here. The record does not give: the amount of reagent, the time to read-out.

Aim: 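Genes whose loss is lethal only together with E-cadherin loss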 (primary screen)
System: human MCF10A breast epithelial cells, parental and CDH1-null
Knock-down reagent: siRNA against human genes
Measurement: 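ATP luminescence (CellTiter-Glo) viability per line relative to mean mock wells over all plates, and the ratio of CDH1-null to parental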
Direction: CDH1-null / parental viability ratio: higher = CDH1-null cells survive relatively better than parental; CDH1-null viability vs mock: higher = more viable CDH1-null cells; parental viability vs mock: higher = more viable parental cells

| target gene | reagent no. | CDH1-null / parental viability ratio | CDH1-null viability vs mock (fraction of mock) | parental viability vs mock (fraction of mock) |
| --- | --- | --- | --- | --- |
| NXF5 | 1 | 0.81 | 0.62 | 0.77 |
| ZNF644 | 1 | 0.98 | 0.86 | 0.88 |
| RAB20 | 1 | 1.08 | 1.17 | 1.08 |
| TEKTL1 | 1 | 0.99 | 0.68 | 0.69 |
| RAPGEF1 | 1 | 1.08 | 0.96 | 0.89 |
| BPIFB1 | 1 | 0.95 | 0.61 | 0.64 |
| CD151 | 1 | 0.85 | 0.8 | 0.94 |
| SLC25A11 | 1 | 1.14 | 0.9 | 0.79 |
| KRTAP4-1 | 1 | 1.12 | 0.67 | 0.6 |

Look-ups from the entries so far:
Value for TEKTL1 under “parental viability vs mock (fraction of mock)”: 0.69
Under “CDH1-null viability vs mock (fraction of mock)”, BPIFB1 shows 0.61
For “parental viability vs mock (fraction of mock)”, ZNF644 has 0.88
For “CDH1-null viability vs mock (fraction of mock)”, RAB20 reads 1.17

Next reagents:
| target gene | reagent no. | CDH1-null / parental viability ratio | CDH1-null viability vs mock (fraction of mock) | parental viability vs mock (fraction of mock) |
| --- | --- | --- | --- | --- |
| ABCD4 | 1 | 1.06 | 0.88 | 0.83 |
| ITGA6 | 1 | 1.14 | 1.07 | 0.94 |
| MYCL | 1 | 1 | 0.85 | 0.85 |
| INSIG2 | 1 | 1.06 | 1.08 | 1.02 |
| TXNL4B | 1 | 1.2 | 1.06 | 0.88 |
| C3P1 | 1 | 1.03 | 0.68 | 0.66 |
| LLPH | 1 | 1.28 | 0.64 | 0.5 |
| DNAJB14 | 1 | 0.89 | 0.82 | 0.92 |
| ADH1C | 1 | 0.84 | 0.36 | 0.43 |
| TEK | 1 | 0.85 | 0.82 | 0.96 |
| PIK3R4 | 1 | 0.62 | 0.53 | 0.86 |
| TBC1D22A | 1 | 1.2 | 1.12 | 0.93 |
| NIN | 1 | 1.09 | 0.96 | 0.88 |
| MZF1 | 1 | 1.04 | 0.86 | 0.83 |
| CNPY4 | 1 | 1.18 | 0.71 | 0.6 |
| RNASEH2B | 1 | 1 | 0.85 | 0.85 |
| LYG2 | 1 | 1.1 | 0.9 | 0.82 |
| KIF7 | 1 | 1.02 | 0.64 | 0.63 |
| MRC1 | 1 | 0.93 | 0.92 | 0.99 |
| MRC1 | 2 | 0.93 | 0.64 | 0.69 |
